Test results from publication PMC12721899.
No constants are given. Whether binding was seen depends on the method and setting. Binding seen in cells or lysates may run through a third protein. Some entries that bind do so weakly or less than the wild type.

Chains of the proteins cited; added tags and fusions are not shown. Residues count along the entry.
UniProt P19491, residues 22-883: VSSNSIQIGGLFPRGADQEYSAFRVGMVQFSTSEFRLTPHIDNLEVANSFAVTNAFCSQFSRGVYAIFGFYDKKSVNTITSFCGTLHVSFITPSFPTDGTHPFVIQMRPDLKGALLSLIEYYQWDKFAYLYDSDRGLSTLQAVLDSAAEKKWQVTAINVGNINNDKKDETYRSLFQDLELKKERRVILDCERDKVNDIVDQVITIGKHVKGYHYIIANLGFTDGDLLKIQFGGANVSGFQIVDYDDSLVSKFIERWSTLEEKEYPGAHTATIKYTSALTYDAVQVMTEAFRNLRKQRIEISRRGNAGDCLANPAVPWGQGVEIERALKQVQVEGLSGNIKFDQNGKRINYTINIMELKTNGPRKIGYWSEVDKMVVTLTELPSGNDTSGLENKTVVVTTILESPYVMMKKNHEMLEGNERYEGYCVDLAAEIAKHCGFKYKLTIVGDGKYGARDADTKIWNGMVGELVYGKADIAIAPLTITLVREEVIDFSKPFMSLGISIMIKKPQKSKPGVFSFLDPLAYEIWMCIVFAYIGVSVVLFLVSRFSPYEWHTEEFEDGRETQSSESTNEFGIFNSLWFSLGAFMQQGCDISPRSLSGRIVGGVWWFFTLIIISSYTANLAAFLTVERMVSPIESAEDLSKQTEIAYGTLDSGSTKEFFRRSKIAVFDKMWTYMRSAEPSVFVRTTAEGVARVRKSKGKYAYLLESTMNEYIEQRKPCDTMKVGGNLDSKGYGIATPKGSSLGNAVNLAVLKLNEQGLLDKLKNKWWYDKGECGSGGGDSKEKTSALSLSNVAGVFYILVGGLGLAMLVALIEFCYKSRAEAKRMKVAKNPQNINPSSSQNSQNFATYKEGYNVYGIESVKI
UniProt P19492, residues 23-888: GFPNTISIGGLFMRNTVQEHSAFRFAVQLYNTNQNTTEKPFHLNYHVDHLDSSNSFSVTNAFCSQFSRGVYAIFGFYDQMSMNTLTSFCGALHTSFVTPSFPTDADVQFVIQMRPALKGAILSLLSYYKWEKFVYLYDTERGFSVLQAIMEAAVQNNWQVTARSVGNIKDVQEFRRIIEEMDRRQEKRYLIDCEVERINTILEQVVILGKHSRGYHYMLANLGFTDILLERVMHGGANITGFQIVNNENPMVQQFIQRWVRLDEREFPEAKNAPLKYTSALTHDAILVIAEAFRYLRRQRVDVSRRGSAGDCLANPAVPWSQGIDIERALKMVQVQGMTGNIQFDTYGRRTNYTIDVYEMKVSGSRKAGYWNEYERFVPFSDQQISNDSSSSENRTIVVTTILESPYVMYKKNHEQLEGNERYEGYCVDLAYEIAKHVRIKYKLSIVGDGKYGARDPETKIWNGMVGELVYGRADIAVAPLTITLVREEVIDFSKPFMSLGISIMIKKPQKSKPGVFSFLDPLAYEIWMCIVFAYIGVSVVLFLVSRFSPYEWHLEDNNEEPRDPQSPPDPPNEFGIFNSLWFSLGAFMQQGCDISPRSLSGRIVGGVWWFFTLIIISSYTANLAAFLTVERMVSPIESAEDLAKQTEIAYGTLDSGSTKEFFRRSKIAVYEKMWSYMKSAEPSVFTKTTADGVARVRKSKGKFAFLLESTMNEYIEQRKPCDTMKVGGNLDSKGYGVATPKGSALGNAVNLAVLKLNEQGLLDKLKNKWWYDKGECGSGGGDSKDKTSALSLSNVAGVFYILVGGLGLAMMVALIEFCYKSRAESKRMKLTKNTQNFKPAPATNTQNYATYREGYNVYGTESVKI

Target: GluA2 (rat (endogenous in dorsal spinal cord)) (UniProt P19491)
Test: co-IP; protein extracts of rat dorsal spinal cord (L4-L6); rabbit anti-GluA2 antibody (or IgG) on protein G agarose beads, 4°C overnight; blots with mouse anti-GluA2 and mouse anti-GluA3; sham and SNL rats, intrathecal vehicle or 10 μg pregabalin, control or Gria3-expressing lentiviruses

binding: binds
Substance: GluA3 (from UniProt P19492 23-888) (receptor)
